Assay [1] concerns the target DDI1 (DNA-damage inducible 1 homolog 1) (human (endogenous in KYSE30)) (UniProt Q8WTU0). Put plainly: co-IP; lysate of 30-NRIP3 cells (KYSE30 overexpressing NRIP3); Pierce Direct Magnetic IP/Co-IP kit, 500 µl lysate with 25 µl beads coupled with 5 µg NRIP3, DDI1 or RTF2 antibody, 4 °C overnight; western blot. A general note: Immunoblotting shows a protein as a band on a membrane.

Sequences of proteins named here, by UniProt entry; tags and fusion partners are left off.
UniProt Q8WTU0: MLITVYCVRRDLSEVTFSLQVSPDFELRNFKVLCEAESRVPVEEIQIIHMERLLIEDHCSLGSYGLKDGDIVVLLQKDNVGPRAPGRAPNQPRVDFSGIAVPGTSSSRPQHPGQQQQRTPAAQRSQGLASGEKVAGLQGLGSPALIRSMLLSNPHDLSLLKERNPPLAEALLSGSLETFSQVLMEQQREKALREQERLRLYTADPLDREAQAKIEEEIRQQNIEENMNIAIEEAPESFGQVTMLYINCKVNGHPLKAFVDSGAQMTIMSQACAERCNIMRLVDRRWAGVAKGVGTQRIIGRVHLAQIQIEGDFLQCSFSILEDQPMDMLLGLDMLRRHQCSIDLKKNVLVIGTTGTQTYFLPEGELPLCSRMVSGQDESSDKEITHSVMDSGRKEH
UniProt Q9NQ35: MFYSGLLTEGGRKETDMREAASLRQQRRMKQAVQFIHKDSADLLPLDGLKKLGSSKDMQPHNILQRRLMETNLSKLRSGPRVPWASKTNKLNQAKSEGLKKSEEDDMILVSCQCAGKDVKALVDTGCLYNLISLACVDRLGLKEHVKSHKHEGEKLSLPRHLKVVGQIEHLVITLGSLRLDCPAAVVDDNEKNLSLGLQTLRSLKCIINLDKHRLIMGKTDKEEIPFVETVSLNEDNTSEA

Assay [2] concerns the target NRIP3 (nuclear receptor interacting protein 3), overexpressed in KYSE30 cells (UniProt Q9NQ35). The assay is described as above.
The target of assay [3] is T1, RTF2 (replication termination factor 2, homologous to Schizosaccharomyces pombe Rtf2) (human (endogenous in KYSE30 and EC109)) (UniProt Q9BY42).
T1 sequence: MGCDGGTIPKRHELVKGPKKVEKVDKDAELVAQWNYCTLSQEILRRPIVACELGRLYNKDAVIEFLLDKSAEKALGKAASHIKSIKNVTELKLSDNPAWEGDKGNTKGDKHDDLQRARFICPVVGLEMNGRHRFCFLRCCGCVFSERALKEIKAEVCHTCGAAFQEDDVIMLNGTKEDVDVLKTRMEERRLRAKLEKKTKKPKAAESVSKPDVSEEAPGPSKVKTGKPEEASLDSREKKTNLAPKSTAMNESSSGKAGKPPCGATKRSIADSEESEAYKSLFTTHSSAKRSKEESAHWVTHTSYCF
Nature of the assay: co-IP; lysate of EC109 cells (endogenous proteins); Pierce Direct Magnetic IP/Co-IP kit, 500 µl lysate with 25 µl beads coupled with 5 µg NRIP3 or RTF2 antibody, 4 °C overnight; western blot.

These are yes or no findings as the source states them, for the method shown. In cells and extracts the contact can be indirect. Some entries that bind do so weakly or less than the wild type. For some of these results: Tags and fused reporters may be left off the sequences shown.

With “NRIP3 (nuclear receptor interacting protein 3), overexpressed in KYSE30 cells (from UniProt Q9NQ35 1-241)”, the binding result in assay [1] was “binds”.

Regarding “DDI1 (DNA-damage inducible 1 homolog 1) (from UniProt Q8WTU0 1-396)”, the binding result in assay [2] is listed as “binds”.

In the case of “NRIP3 (nuclear receptor interacting protein 3), endogenous in EC109 cells (from UniProt Q9NQ35 1-241)”, the binding entry in assay [3] was “binds”.

B1: RTF2 (replication termination factor 2, homologous to Schizosaccharomyces pombe Rtf2) (protein, UniProt Q9BY42 1-306)
chain: MGCDGGTIPKRHELVKGPKKVEKVDKDAELVAQWNYCTLSQEILRRPIVACELGRLYNKDAVIEFLLDKSAEKALGKAASHIKSIKNVTELKLSDNPAWEGDKGNTKGDKHDDLQRARFICPVVGLEMNGRHRFCFLRCCGCVFSERALKEIKAEVCHTCGAAFQEDDVIMLNGTKEDVDVLKTRMEERRLRAKLEKKTKKPKAAESVSKPDVSEEAPGPSKVKTGKPEEASLDSREKKTNLAPKSTAMNESSSGKAGKPPCGATKRSIADSEESEAYKSLFTTHSSAKRSKEESAHWVTHTSYCF
For the molecule B1, the binding result in assay [1] was “binds”.

For the origin of these results see PMC7445249.
